{"sequences": {"note": "Chains of the proteins cited; added tags and fusions are not shown. Residues count along the entry.", "UniProt P40729, residues 362-692": "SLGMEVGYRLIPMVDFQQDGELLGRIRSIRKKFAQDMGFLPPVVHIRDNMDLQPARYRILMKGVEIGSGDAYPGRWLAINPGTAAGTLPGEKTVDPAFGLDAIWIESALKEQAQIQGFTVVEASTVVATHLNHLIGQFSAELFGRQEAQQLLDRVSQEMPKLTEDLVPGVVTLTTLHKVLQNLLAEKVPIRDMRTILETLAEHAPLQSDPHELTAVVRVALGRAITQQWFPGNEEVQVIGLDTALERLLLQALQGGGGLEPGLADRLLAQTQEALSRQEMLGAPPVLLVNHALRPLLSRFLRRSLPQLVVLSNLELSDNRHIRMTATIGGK"}, "source": "paper PMC5932034", "binders": {"B1": {"name": "FliD (protein, UniProt P16328 1-467)", "chain": "MASISSLGVGSNLPLDQLLTDLTKNEKGRLTPITKQQSANSAKLTAYGTLKSALEKFQTANTALNKADLFKSTVASSTTEDLKVSTTAGAAAGTYKINVTQLAAAQSLATKTTFATTKEQLGDTSVTSRTIKIEQPGRKEPLEIKLDKGDTSMEAIRDAINDADSGIAASIVKVKENEFQLVLTANSGTDNTMKITVEGDTKLNDLLAYDSTTNTGNMQELVKAENAKLNVNGIDIERQSNTVTDAPQGITLTLTKKVTDATVTVTKDDTKAKEAIKSWVDAYNSLVDTFSSLTKYTAVEPGEEASDKNGALLGDSVVRTIQTGIRAQFANSGSNSAFKTMAEIGITQDGTSGKLKIDDDKLTKVLKDNTAAARELLVGDGKETGITTKIATEVKSYLADDGIIDNAQDNVNATLKSLTKQYLSVSNSIDETVARYKAQFTQLDTMMSKLNNTSSYLTQQFTAMNKS"}}, "molecular_target": "cytoplasmic domain of Salmonella enterica serovar Typhimurium FlhA (FlhA^C) (Salmonella enterica serovar Typhimurium ST313) (UniProt P40729)", "assay": "NMR titration; unlabelled partner added to isotopically labelled FlhA^C (and unlabelled FlhA^C to labelled chaperone–substrate complex); 25 °C; 50 mM NaPi pH 6.8, 300 mM NaCl, 0.05% NaN3; typically 0.3 mM labelled protein; both purified", "note": "Results are given in words; binding and its absence hold for the method and conditions named.", "data": [{"binder": "B1", "values": [{"measurement": "binding", "value": "no binding"}]}]}
